Reference: article PMC8447601
These are yes or no findings as the source states them, for the method shown. In cells and extracts the contact can be indirect. A yes stands for co-enrichment or nearness to the bait. Other partners may have been found. For part of these data: A no says only that the protein was not detected with the bait. Where a sequence is shown, tags or fusion partners need not be part of it. Blank lines part the entries; values can stand above or below the molecule they belong to.

How the values were obtained:
[1] = molecular target: T1, Tudor staphylococcal nuclease 2 with C-terminal TAPa tag (TSN2‐TAPa) (Arabidopsis thaliana) (UniProt Q9FLT0); assay: affinity purification with mass spectrometry; TAPa with TSN2-TAPa as in a1, plants salt-stressed (200 mM NaCl for 5 h): TSN2_NaCl pool
T1 sequence: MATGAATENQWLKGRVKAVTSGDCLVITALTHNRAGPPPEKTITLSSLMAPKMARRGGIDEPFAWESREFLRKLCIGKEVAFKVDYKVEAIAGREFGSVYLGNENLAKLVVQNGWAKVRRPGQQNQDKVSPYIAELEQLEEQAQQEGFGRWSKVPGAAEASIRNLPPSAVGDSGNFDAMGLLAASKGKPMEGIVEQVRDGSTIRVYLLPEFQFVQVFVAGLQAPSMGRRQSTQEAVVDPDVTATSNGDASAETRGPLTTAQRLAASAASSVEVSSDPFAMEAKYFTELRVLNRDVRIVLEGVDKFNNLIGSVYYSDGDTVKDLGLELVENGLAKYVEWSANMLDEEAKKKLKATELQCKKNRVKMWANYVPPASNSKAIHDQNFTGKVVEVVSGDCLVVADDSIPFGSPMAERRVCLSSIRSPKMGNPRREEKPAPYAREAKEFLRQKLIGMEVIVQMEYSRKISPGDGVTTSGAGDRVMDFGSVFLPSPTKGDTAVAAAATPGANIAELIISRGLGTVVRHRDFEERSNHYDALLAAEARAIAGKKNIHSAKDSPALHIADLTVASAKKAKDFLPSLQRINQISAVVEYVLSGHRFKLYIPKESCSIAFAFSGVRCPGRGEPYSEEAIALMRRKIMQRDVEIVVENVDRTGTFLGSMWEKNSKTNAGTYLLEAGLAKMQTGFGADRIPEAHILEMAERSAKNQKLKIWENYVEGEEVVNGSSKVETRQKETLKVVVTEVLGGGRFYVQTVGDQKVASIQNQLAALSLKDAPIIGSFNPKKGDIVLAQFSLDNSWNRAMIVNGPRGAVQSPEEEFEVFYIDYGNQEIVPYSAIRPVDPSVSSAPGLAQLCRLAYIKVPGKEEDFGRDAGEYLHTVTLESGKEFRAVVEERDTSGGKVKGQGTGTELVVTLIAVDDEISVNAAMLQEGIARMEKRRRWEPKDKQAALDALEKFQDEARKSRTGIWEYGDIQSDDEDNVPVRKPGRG

[2] = molecular target: T1, Tudor staphylococcal nuclease 2 with C-terminal TAPa tag (TSN2‐TAPa) (Arabidopsis thaliana); assay: affinity purification with mass spectrometry; TAPa: TSN2-TAPa or TSN1-TAPa as bait from leaves of 18-day-old Arabidopsis; IgG beads, 3C protease elution, Ni-NTA; 50 mM Tris-HCl pH 7.5, 150 mM NaCl, 10% glycerol, 0.1% Nonidet P-40, 4°C; label-free LC-MS/MS (iBAQ), enrichment against GFP-TAPa; plants at 23°C (NS), 39°C for 60 min (HS) or 200 mM NaCl for 5 h
[3] = molecular target: T2, Tudor staphylococcal nuclease 1 with C-terminal TAPa tag (TSN1‐TAPa) (Arabidopsis thaliana) (UniProt Q8VZG7); assay: as above
T2 sequence: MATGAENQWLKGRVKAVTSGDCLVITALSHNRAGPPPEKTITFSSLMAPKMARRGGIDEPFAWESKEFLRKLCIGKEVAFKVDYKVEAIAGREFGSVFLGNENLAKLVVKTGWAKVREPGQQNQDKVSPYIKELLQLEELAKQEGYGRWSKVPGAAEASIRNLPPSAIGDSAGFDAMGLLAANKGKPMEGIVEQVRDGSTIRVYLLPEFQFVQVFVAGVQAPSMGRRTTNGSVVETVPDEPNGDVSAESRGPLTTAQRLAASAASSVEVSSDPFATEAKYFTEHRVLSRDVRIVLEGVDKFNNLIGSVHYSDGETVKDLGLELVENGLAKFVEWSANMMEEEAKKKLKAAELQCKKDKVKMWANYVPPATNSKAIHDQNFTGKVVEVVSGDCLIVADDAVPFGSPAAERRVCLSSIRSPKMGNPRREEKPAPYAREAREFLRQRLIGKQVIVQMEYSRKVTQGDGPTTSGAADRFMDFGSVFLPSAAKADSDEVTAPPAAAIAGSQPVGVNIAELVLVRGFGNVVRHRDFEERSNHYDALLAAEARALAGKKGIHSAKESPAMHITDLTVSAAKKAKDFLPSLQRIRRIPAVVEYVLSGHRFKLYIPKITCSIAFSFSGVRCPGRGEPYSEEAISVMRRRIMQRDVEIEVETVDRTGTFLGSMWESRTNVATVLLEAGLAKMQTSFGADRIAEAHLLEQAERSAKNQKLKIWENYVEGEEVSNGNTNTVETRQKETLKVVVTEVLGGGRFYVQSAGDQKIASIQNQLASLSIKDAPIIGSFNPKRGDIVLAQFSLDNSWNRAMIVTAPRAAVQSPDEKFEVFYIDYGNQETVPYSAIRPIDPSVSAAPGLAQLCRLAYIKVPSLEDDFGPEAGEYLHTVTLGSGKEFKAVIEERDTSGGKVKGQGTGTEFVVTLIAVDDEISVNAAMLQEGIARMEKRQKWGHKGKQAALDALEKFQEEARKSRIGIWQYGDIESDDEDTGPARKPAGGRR

[4] = molecular target: GFP‐RBP47 (Arabidopsis thaliana); assay: affinity purification with mass spectrometry; GFP-RBP47 immunoprecipitated with α-GFP magnetic beads from leaves of 18-day-old Arabidopsis, NS (23°C) or HS (39°C for 60 min); 50 mM Tris-HCl pH 7.5, 150 mM NaCl, 0.1% Nonidet P-40, 4°C; on-bead digestion, label-free LC-MS/MS, free GFP plants as control

- binding [2]: binds
B1: SnRK1α2 (α‐catalytic subunit of SNF1‐related protein kinase 1) (protein, UniProt P92958 1-512)
chain: MDHSSNRFGNNGVESILPNYKLGKTLGIGSFGKVKIAEHVVTGHKVAIKILNRRKIKNMEMEEKVRREIKILRLFMHPHIIRQYEVIETTSDIYVVMEYVKSGELFDYIVEKGRLQEDEARNFFQQIISGVEYCHRNMVVHRDLKPENLLLDSRCNIKIADFGLSNVMRDGHFLKTSCGSPNYAAPEVISGKLYAGPEVDVWSCGVILYALLCGTLPFDDENIPNLFKKIKGGIYTLPSHLSSEARDLIPRMLIVDPVKRITIPEIRQHRWFQTHLPRYLAVSPPDTVEQAKKINEEIVQEVVNMGFDRNQVLESLRNRTQNDATVTYYLLLDNRFRVPSGYLESEFQETTDSGSNPMRTPEAGASPVGHWIPAHVDHYGLGARSQVPVDRKWALGLQSHAHPREIMNEVLKALQELNVCWKKIGHYNMKCRWVPGLADGQNTMVNNQLHFRDESSIIEDDCAMTSPTVIKFELQLYKAREEKYLLDIQRVNGPQFLFLDLCAAFLTELRVI
- binding [1]: no binding (only salt stress (200 mM NaCl for 5 h))

- binding [3]: binds
- binding [2]: binds
B3: PAB4 (protein, UniProt O22173 1-662)
chain: MAQVQAPSSHSPPPPAVVNDGAATASATPGIGVGGGGDGVTHGALCSLYVGDLDFNVTDSQLYDYFTEVCQVVSVRVCRDAATNTSLGYGYVNYSNTDDAEKAMQKLNYSYLNGKMIRITYSSRDSSARRSGVGNLFVKNLDKSVDNKTLHEAFSGCGTIVSCKVATDHMGQSRGYGFVQFDTEDSAKNAIEKLNGKVLNDKQIFVGPFLRKEERESAADKMKFTNVYVKNLSEATTDDELKTTFGQYGSISSAVVMRDGDGKSRCFGFVNFENPEDAARAVEALNGKKFDDKEWYVGKAQKKSERELELSRRYEQGSSDGGNKFDGLNLYVKNLDDTVTDEKLRELFAEFGTITSCKVMRDPSGTSKGSGFVAFSAASEASRVLNEMNGKMVGGKPLYVALAQRKEERRAKLQAQFSQMRPAFIPGVGPRMPIFTGGAPGLGQQIFYGQGPPPIIPHQPGFGYQPQLVPGMRPAFFGGPMMQPGQQGPRPGGRRSGDGPMRHQHQQPMPYMQPQMMPRGRGYRYPSGGRNMPDGPMPGGMVPVAYDMNVMPYSQPMSAGQLATSLANATPAQQRTLLGESLYPLVDQIESEHAAKVTGMLLEMDQTEVLHLLESPEALNAKVSEALDVLRNVNQPSSQGSEGNKSGSPSDLLASLSINDHL

Continued, molecule first:

Molecule: Oligouridylate Binding Protein 1 (UBP1)
- binding [1]: no binding (only salt stress (200 mM NaCl for 5 h))
- binding [2]: binds

B2: DEAD‐box ATP‐dependent RNA helicase 12 (RH12) (protein, UniProt Q9M2E0 1-498)
chain: MNTNRGRYPPGVGTGRGAPPNPDYHQSYRQQQPPQDQQYVQRGYSQNPQQMQLQQQHQQQQQQQQWSRRPQLPGNASNANEVVQQTTQPEASSDANGQDWKATLRLPPPDTRYQTADVTATKGNEFEDYFLKRDLLKGIYEKGFEKPSPIQEESIPIALTGSDILARAKNGTGKTGAFCIPVLEKIDPNNNVIQAMILVPTRELALQTSQVCKELSKYLNIQVMVTTGGTSLRDDIMRLHQPVHLLVGTPGRILDLTKKGVCVLKDCAMLVMDEADKLLSAEFQPSLEELIQFLPQNRQFLMFSATFPVTVKAFKDRHLRKPYVINLMDQLTLMGVTQYYAFVEERQKVHCLNTLFSKLQINQSIIFCNSVNRVELLAKKITELGYSCFYIHAKMVQDHRNRVFHEFRNGACRNLVCTDLFTRGIDIQAVNVVINFDFPRTSESYLHRVGRSGRFGHLGLAVNLVTYEDRFKMYQTEQELGTEIKPIPSNIDQAIYCQ
- binding [3]: binds
- binding [2]: binds

B4: TSN2 (endogenous, found in the GFP‐RBP47 immunoprecipitates) (protein, UniProt Q9FLT0 1-985)
chain: T1 sequence
- binding [4]: binds
